As a reminder, the AC50 is the midpoint of the concentration-response curve, whichever way the signal moves.

Some of the results follow. Shown are side measurements of this screen, not its main read-out; they come without a call. The list favours compounds with an active or inconclusive main result. Words in brackets tell the shape of the fitted curve; partial curves, single points and poor fits give uncertain potencies.

A short description of this experiment: IkB Signaling. To be noted: ABC-DLBCL IkBa-CBG/CBR dual luciferase ratio (green luciferase fused to IkBa over red control in OCI-Ly3 lymphoma cells), 4 h; measured here: control luc red channel unless noted. The gist of the method: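 In this assay, an IκBα–CBG68 fusion accumulates when IKK-driven degradation is blocked; native CBR normalizes for cell number. OCI-Ly3 cells were treated 4 h with compound and doxycycline, then green and red light read after Chroma-Glo addition.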
With `CCOc1ccc(C2C(C(=O)Nc3ccccc3)=C(C)Nc3nc(-c4ccccc4Cl)nn32)cc1OC` (stereo unspecified), the AC50 is 6.31 µM [falling, partial curve].

With `CCCn1cnc2cc(NCc3cccc(OC)c3)ccc21`, the AC50 is 3.16 µM [falling, partial curve]. The figure for `C=CCN(C(=O)CSc1nc2[nH]ncc2c(=O)n1-c1ccccc1OC)c1ccccc1` is 7.94 µM [falling, partial curve]. As for `CCOc1ccc(Nc2cc(C)nc3nncn23)cc1`, the AC50 was 20 µM [falling, single point]. Under `COc1ccc2ccccc2c1C1CC(=O)N2CN(Cc3ccco3)CSC2=C1C#N` (stereo unspecified) stands 2.51 µM [falling, full curve]; under `CN(C)c1ccc(C(=O)OCC(=O)c2cccs2)cc1`, 12.6 µM [falling, partial curve].

As to `Cc1ccc(Cc2nc3ccccc3nc2SCC(=O)N2CCC(C)CC2)cc1`, the half-maximal activity concentration (AC50) is 31.6 µM [falling, partial curve]. With `Cc1ccc(-n2nc(C)c3c(C)c(CCC(=O)NC(C)c4ccccc4)c(C)nc32)cc1` (stereo unspecified), the concentration at half-maximal activity (AC50) was 5.01 µM [falling, full curve, poor fit]. Under `O=C1CC(N2CCC(c3nc4ccccc4o3)CC2)C(=O)N1c1ccc(Cl)cc1` (stereo unspecified) stands 7.94 µM [falling, partial curve]. With `CCN(CC)C(=O)c1cc(-c2ccc(Br)cc2)on1`, the AC50 is 15.8 µM [falling, partial curve]. Under `COc1cccc(C(=O)Nc2ccc3nc(SCC(=O)N(C)c4ccccc4)sc3c2)c1` stands 3.98 µM [falling, partial curve]; under `Cc1ccc(CNC(=O)c2ccc(CSc3nc4ccncc4n3Cc3ccc(C)cc3)cc2)cc1`, 25.1 µM [falling, partial curve]; under `COc1ccc(CCNC(=O)CCc2cn(Cc3ccccc3Cl)c3ccccc23)c(OC)c1`, 15.8 µM [falling, partial curve]. As for `O=C(Nc1ccccc1)c1cccc(N2CCCC2=O)c1`, the half-maximal activity concentration (AC50) is 3.98 µM [falling, full curve]. The figure for `Cc1cc(C)c(NC(=O)Cn2c(=O)oc3cc(S(=O)(=O)N4CCCCCC4)ccc32)c(C)c1` is 6.31 µM [falling, partial curve]; for `COc1ccc(F)cc1CN1CCN(c2cc(C)nc3c4c(C)cc(C)nc4nn23)CC1` it is 12.6 µM [falling, partial curve]. On to `Cc1ccnc(NC(=O)Nc2ccc3c(c2)N(C)C(=O)CS3)c1`, for which the concentration at half-maximal activity (AC50) was 6.31 µM [falling, full curve]. Regarding `Cc1cc(Cl)ccc1-n1c(CCC(=O)O)ccc1-c1cccs1`, the AC50 is 20 µM [falling, partial curve]. The figure for `COC(=O)COc1ccc(-c2nnc(Nc3ccc(O)cc3)c3ccccc23)cc1` is 3.98 µM [falling, full curve]; for `Cc1cccc2c1-c1sc(C(=O)Nc3ccc(F)cc3F)cc1CO2` it is 0.02 µM [falling, full curve]; for `O=c1c2sc3ccccc3c2n(Cc2cccc(F)c2)c(=O)n1CCc1ccccc1` it is 12.6 µM [falling, partial curve].

As for `CCN(CC)C(=O)Cn1c(=O)n(CCCCCC(=O)NCc2ccc3c(c2)OCO3)c(=O)c2sccc21`, the AC50 is 1.58 µM [rising, partial curve].

For `Cc1c(C(=O)Nc2ccccc2)sc2nc(-c3ccccc3)cn12`, the AC50 is 10 µM [falling, partial curve].

For the compound `CCOc1ccc(N(C)C(=O)c2oc(=O)c3ccccc3c2-c2ccccc2)cc1`, the AC50 was 25.1 µM [falling, partial curve]. The figure for `COCc1cc(=O)n2[nH]c(-c3ccccc3)cc2n1` is 3.98 µM [falling, full curve]. The figure for `O=C(O)CC1c2ccccc2CCN1C(=O)Nc1cc(Cl)ccc1Cl` (stereo unspecified) is 20 µM [falling, partial curve]; for `Cc1ccc(N(CC(=O)N2CCN(c3cc(C)ccc3C)CC2)S(=O)(=O)c2c(C)nn(C)c2C)cc1` it is 15.8 µM [falling, partial curve]; for `O=c1cc(CSc2nnc(-c3cccs3)n2Cc2ccccc2)nc2sc3ccccc3n12` it is 7.94 µM [falling, partial curve].

On to `Cc1ccc2cc(CN(Cc3ccc4c(c3)OCO4)Cc3nnnn3Cc3ccco3)c(=O)[nH]c2c1`, for which the concentration at half-maximal activity (AC50) was 15.8 µM [falling, partial curve]. Turning to `COc1ccc(-n2c(C)cc(C(=O)Cn3c(NCCO)nc4ccccc43)c2C)cc1`, the AC50 was 20 µM [falling, partial curve]. In the case of `CCOC(=O)C1CCN(C(=O)c2cc3sc(C)cc3n2C)CC1`, the AC50 is 39.8 µM [falling, single point].

Regarding `CCCCN(CC)C(=O)CSc1nc2n[nH]c(C)c2c(=N)n1-c1ccc(CC)cc1`, the AC50 was 10 µM [falling, partial curve]. The figure for `COc1ccc(NC(=O)CSc2ncc3c(n2)-c2ccccc2N(Cc2ccc(C)cc2)S3(=O)=O)cc1Cl` is 3.16 µM [rising, partial curve]; for `Cc1ccc(N(C)C(=O)c2sc3nc4n(c(=O)c3c2C)CCCC4)cc1C` it is 15.8 µM [falling, partial curve].

`COCCCn1c(=O)c2sccc2n2c(CCCC(=O)NCc3cccc(OC)c3)nnc12`: the concentration at half-maximal activity (AC50) was 31.6 µM [falling, single point].

As for `COC(=O)c1ccc(C2C(C#N)=C(C)NC3=C2C(=O)CC(C)(C)C3)cc1` (stereo unspecified), the AC50 was 3.98 µM [falling, full curve]. Regarding `O=C(CSc1ncc(-c2ccccc2)[nH]1)Nc1ccccc1`, the AC50 is 7.94 µM [falling, full curve, poor fit]. The figure for `CC(C)(C)c1ccc(C(=O)CCCSC2=C(C#N)C(c3ccco3)C3=C(CCCC3=O)N2)cc1` (stereo unspecified) is 12.6 µM [falling, partial curve]. The figure for `Clc1ccc(OCc2nnc(-c3ccccc3Br)o2)cc1` is 39.8 µM [falling, single point]; for `CCCCOc1ccc(C(=O)Nc2ccc3c(c2)CCCN3C(=O)c2cccs2)cc1` it is 6.31 µM [falling, partial curve]; for `O=C(CCC1N=C2c3ccccc3N=C(SCC(=O)Nc3cccc(Cl)c3)N2C1=O)NCc1ccco1` (stereo unspecified) it is 10 µM [falling, partial curve, poor fit].

These data come from PubChem BioAssay AID445 (National Center for Advancing Translational Sciences (NCATS), 2006).
